Results on four substances are retold here after patent US5856309A (Boehringer Mannheim GmbH, priority 1997, dated 1999).

What all share (settings): whole synthesis, scale 0.03 mmol, HCl
The nature of data set [1]: general procedure: Fmoc solid-phase peptide synthesis; Fmoc-L-Tyr-TCP resin; TBTU/NMM.
Data set [2] is described as follows: general procedure: Fmoc solid-phase peptide synthesis; Fmoc-L-Phe-TCP resin; TBTU/NMM.
Data set [3] in a line: general procedure: Fmoc solid-phase peptide synthesis; Fmoc-L-Ser(t-Bu)-TCP; TBTU/NMM.
The nature of data set [4]: general procedure: Fmoc solid-phase peptide synthesis; Fmoc-L-Trp-TCP resin; TBTU/NMM.

As for Ada-Gly-Asp-Tyr, the crude mass in data set [1] is 12 mg.
Regarding Troc-Ada-Gly-Asp-Phe, the crude mass in data set [2] was 14 mg.
In turn, Troc-Ada-Gly-Asp-Ser returned a crude mass in data set [3] of 15 mg.
For the substance Troc-Ada-Gly-Asp-Trp, in data set [4], the crude mass is recorded as 16 mg.
